Results on two molecules are retold here after patent US20260053904A1.

Assay [1] addresses T1, huEpCAM-M3 (Homo sapiens) (UniProt P16422).
T1 sequence (extracellular domain, looked up): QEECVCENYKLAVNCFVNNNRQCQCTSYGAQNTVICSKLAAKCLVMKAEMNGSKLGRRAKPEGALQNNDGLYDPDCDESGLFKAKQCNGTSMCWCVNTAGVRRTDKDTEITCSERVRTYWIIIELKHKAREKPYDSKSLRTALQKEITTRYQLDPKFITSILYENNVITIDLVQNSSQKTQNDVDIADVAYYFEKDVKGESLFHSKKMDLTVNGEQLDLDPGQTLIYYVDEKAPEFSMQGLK
The assay can be described thus: ELISA on human EpCAM-ECD and its mutants; single bar per antigen, antibody concentration not given. (In general: ELISA stands for enzyme-linked immunosorbent assay.)

In assay [2] the target is T2, huEpCAM-M6 (Homo sapiens) (UniProt P16422).
T2 sequence (extracellular domain, looked up): T1 sequence (extracellular domain, looked up) with E2R, E3D
The description is as above.

Assay [3] has as its target T3, huEpCAM-M1 (Homo sapiens) (UniProt P16422).
T3 sequence (extracellular domain, looked up): T1 sequence (extracellular domain, looked up) with E2R, E3D, Y28V
The assay is described as above.

Assay [4] deals with T4, human EpCAM expressed on cells (CHO, Colo205, 293) (human) (UniProt P16422).
T4 sequence (looked up): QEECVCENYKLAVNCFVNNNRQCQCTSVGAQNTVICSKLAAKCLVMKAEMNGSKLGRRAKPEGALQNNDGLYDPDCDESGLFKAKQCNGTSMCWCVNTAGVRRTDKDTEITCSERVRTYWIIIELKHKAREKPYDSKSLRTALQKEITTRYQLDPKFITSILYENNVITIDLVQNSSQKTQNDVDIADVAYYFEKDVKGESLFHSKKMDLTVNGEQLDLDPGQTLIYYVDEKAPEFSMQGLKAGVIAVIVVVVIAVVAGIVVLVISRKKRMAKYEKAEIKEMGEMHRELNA
Kind of assay: hybridoma screening on stable CHO cells expressing human EpCAM.

Assay [5] deals with T5, recombinant human EpCAM extracellular domain (human) (UniProt P16422).
T5 sequence (looked up): T1 sequence (extracellular domain, looked up) with Y28V
Kind of assay: hybridoma screening, ELISA.

Residue numbers refer to the chain shown, from its start. No constants are given. Whether binding was seen depends on the method and setting. Some results given as binding are weak or reduced against the parent protein; the word gives no strength.

B1: BAP-105.4-01-05 (antibody, V domains shown)
VH: EVQLVQSGAEVKKPGATVKISCKVSGYTFTSYWMHWIRQPPGKGLEWIGYIRPSTGYTEYNQKFKDRFTISRDNSKNTLYLQMNSLRAEDTAVYYCGRGDNWVGFANWGQGTLVTVSS
VL: EIVLTQSPDFQSVTPKEKVTITCSASSSISYMHWYQQKPGKAPKLLIYSTSNLASGVPDRFSGSGSGTDFTLKISRVEAEDVGVYYCHQWSTYETFGQGTKVEIK
Take B1: the binding result in assay [1], in assay [2] and in assay [3] was “binds” each time.

B2: antibody of hybridoma clone 12C10F12 (antibody, V domains shown)
VH: QVQLQQSGAELAKPGASVKVSCKASGYTFTSYWMHWVKQRPGQGLEWIGYIRPSTGYTEYNQKFKDKATLTADKSSSTAYMQLSSLTFEDSAVYYCGRGDNWVGFANWGQGTLVTVSA
VL: QIVLTQSPAIMSASLGEEIALTCSASSSISYMHWYQQKSGTSPKLLIYSTSNLASGVPSRFSGSGSGTFYSLTISSVEAEDAADYFCHQWSTYHTFGSGTKLEIK
Turning to B2, the binding result in assay [4] and in assay [5] was “binds” in each case.
